PubChem BioAssay AID743121, NCATS – 2013

- Test: 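Partners whose loss is lethal together with topoisomerase I blockade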 (primary screen)
- System: MDA-MB-231 cells, a human breast cancer line
- Reagent: single siRNA against human genes, 20 nM siRNA (0.8 pmol per well)
- Duration: 120 h (drug added 48 h after transfection, read 72 h later)
- Conditions: camptothecin 20 nM (about EC30) for 72 h; vehicle 0.1% DMSO in parallel plates
- Detection: 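Cell viability by ATP luminescence (CellTiter-Glo) as % of non-targeting siRNA wells, and the log2 ratio of viability without drug over viability with camptothecin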
- Scale: log2 vehicle/camptothecin viability: higher = stronger sensitisation to camptothecin
- Rule for the call: 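Each gene scored by redundant siRNA activity (RSA) over its individual siRNA ratios; a gene is called active at p < 0.001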
The deposit covers about 26,000 reagents; shown is a part drawn at random. Over the whole deposit, 167 (0.63%) got an active call. 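Calls are per gene from RSA p-values that are not deposited; an individual active-marked siRNA can sensitise only weakly.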 Reagents against one gene are numbered here. Further read-outs or replicates are left out here. No sequences are given here.

Knock-down of PAPPA #1 gave: log2 vehicle/camptothecin viability -0.343; inactive.
With knock-down of PAPPA #2 the results were log2 vehicle/camptothecin viability -0.0586; inactive.
After knock-down of PAPPA #3, the screen gave log2 vehicle/camptothecin viability -0.226; inactive.
For PAPPA #4, the values are log2 vehicle/camptothecin viability -0.297; inactive.
For COL9A2 #1 the deposit lists log2 vehicle/camptothecin viability -0.111; inactive.
With knock-down of COL9A2 #2, the screen gave log2 vehicle/camptothecin viability 0.06; inactive.
Silencing of COL9A2 #3 gave: log2 vehicle/camptothecin viability 0.693; inactive.
COL9A2 #4 showed log2 vehicle/camptothecin viability -0.314; inactive.
IGFBP5 #1 showed log2 vehicle/camptothecin viability 0.29; inactive.
After knock-down of IGFBP5 #2, the screen gave log2 vehicle/camptothecin viability -0.0564; inactive.
Against IGFBP5 #3, the entry reads log2 vehicle/camptothecin viability 0.15; inactive.
For IGFBP5 #4, the entry reads log2 vehicle/camptothecin viability -0.365; inactive.
TLR4 #1 showed log2 vehicle/camptothecin viability 0.541; inactive.
With knock-down of TLR4 #2, the screen gave log2 vehicle/camptothecin viability -0.123; inactive.
For TLR4 #3 the deposit lists log2 vehicle/camptothecin viability -0.118; inactive.
For TLR4 #4, the values are log2 vehicle/camptothecin viability -0.0386; inactive.

2 successive records from above, for reference:
IGFBP5 #1 — log2 vehicle/camptothecin viability = 0.29; Outcome = inactive
IGFBP5 #2 — log2 vehicle/camptothecin viability = -0.0564; Outcome = inactive
